# Test results: the supplement of paper PMC12823440, “Inhibitors supercharge kinase turnover through native proteolytic circuits” (Nature, 2025)
# The chains behind the UniProt entries cited, without tags or fusion partners.
# UniProt Q96GD4, whole entry: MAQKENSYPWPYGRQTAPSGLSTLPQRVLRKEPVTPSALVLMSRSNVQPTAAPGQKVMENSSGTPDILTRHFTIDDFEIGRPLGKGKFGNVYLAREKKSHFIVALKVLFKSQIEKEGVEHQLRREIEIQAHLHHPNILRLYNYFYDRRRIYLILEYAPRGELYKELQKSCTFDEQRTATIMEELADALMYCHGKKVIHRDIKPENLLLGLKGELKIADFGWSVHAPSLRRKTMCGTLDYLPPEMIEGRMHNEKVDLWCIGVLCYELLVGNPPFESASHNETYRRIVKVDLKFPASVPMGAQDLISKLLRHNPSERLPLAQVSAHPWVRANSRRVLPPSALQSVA
# Some of the results follow. The calls rarely recur for the same compound in another form.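 Kinases were expressed as nanoluciferase fusions in K562 cells and luminescence was read every 4 h between 2 and 18 h as percent of control, DMSO set to 100% and a positive control to 0%. A time point counts as decreased when the signal drops significantly (2 sigma). The hit call is the authors' own, does not follow from the count of time points alone, and its rule is not shown.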
# Target: AURKB (UniProt Q96GD4)
# Assay: number of time points (of 5) at which kinase-Nluc abundance scored as decreased, DMSO-normalised (count); higher = more persistent destabilization
# Conditions: K562; 2-18 h
row,Compound,number of time points
1,NCc1ccc(Nc2ncc(F)c(Nc3ccccc3)n2)cc1 (10 µM),0
2,C=C(C)C(=O)Nc1cccc(-c2ncnc3[nH]cc(C(=O)OCC)c23)c1 (10 µM),0
3,CCOc1cc(C(=O)N2CCC(N3CCN(C)CC3)CC2)ccc1Nc1ncc2c(n1)N(C1CCCC1)c1ccccc1C(=O)N2C (10 µM),0
4,CCOc1ccc(C(=O)Nc2ncc([N+](=O)[O-])s2)cc1 (10 µM),0
5,CNC(=O)Nc1ccc(-c2cc(-c3ccnc(Nc4ccc(C)c(S(=O)(=O)N(C)C)c4)n3)ccn2)cc1 [hSMG-1 inhibitor 11e] (2.5 µM),0
6,CNC(=O)c1ccc(-c2cnc3cnc(C(=O)N(C)c4ccc(Cl)cc4)cn23)cc1 (2.5 µM),0
7,COc1cccc(-n2c(=O)[nH]c3cc(Cl)n(-c4ccc(-c5cccc(OC)c5O)cc4)c3c2=O)c1 (2.5 µM),0
8,O=C(Nc1cccnc1)c1cc(C(=O)c2c(F)cccc2Br)c[nH]1 (10 µM),0
9,CN(CC(=O)N(Cc1ccc(C2CCCCC2)cc1)c1ccc(C(=O)O)cc1)S(=O)(=O)c1c(F)c(F)c(F)c(F)c1F (2.5 µM),0
10,COc1c(NC(=O)C(=O)c2ccc(OCCN3CCOCC3)c3ccccc23)cc(C(C)(C)C)cc1NS(C)(=O)=O (2.5 µM),0
11,CC(C)CC1(O)CCN(C(=O)c2ccc(NS(=O)(=O)c3cccc4nccnc34)cc2)CC1 (10 µM),0
12,O=C(/C=C/c1ccc(O)c(O)c1)c1ccc(O[C@@H]2O[C@H](CO)[C@@H](O)[C@H](O)[C@H]2O)c(O)c1O [Marein] (10 µM),0

# Pulled by structure from the entries so far (two):
row,Compound,number of time points
7,COc1cccc(-n2c(=O)[nH]c3cc(Cl)n(-c4ccc(-c5cccc(OC)c5O)cc4)c3c2=O)c1 (2.5 µM),0
8,O=C(Nc1cccnc1)c1cc(C(=O)c2c(F)cccc2Br)c[nH]1 (10 µM),0
